PubChem BioAssay AID1224826, NIAID | 2016
Screen: 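Regulators of Tlr4 signalling leading to Tnf-alpha expression in macrophages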 (primary screen). System: RAW264.7 G9 macrophages from mouse bearing reporters for p65 (GFP) and the Tnf promoter (mCherry). Reagents: siRNA pool against mouse genes, 100 nM. Time to read-out: 16 h of LPS stimulation, after 2 days of siRNA transfection. Conditions: bacterial lipopolysaccharide (Salmonella minnesota R595), 10 ng/ml. Measured: 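Imaged Tnf reporter mCherry in nuclei, minus background, normalised per plate to the median and expressed as robust z-scores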. Reading the numbers: Tnf reporter robust z-score: higher = stronger Tnf promoter reporter signal after LPS. Rule for the call: 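Called active when robust z-score is at most -1.3, matching the median of the Tlr4 knock-down control, or over 3; control wells and wells with under 50 cells never active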. Meaning of the calls: active = Tnf reporter clearly lowered or raised; inactive = no clear change in Tnf reporter.
This is a random part of about 17,000 reagents tested. About 1,110 of all reagents (6.6%) count as active. 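Active means lowered or raised reporter signal; replicate intensities are raw and not normalised per plate.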 Entries without a mark were called inactive. Not all columns of the deposit are shown.

Serpina10 | Tnf reporter robust z-score: -0.35; fewer than 50 cells in well: enough cells in well
Them7 (thioesterase superfamily member 7) | Tnf reporter robust z-score: -0.62; fewer than 50 cells in well: enough cells in well
3110040N11Rik (RIKEN cDNA 3110040N11 gene) | Tnf reporter robust z-score: 0.16; fewer than 50 cells in well: enough cells in well
Cacna1g (calcium channel, voltage-dependent, T type, alpha 1G subunit) | Tnf reporter robust z-score: 0.77; fewer than 50 cells in well: enough cells in well
Col10a1 (collagen, type X, alpha 1) | Tnf reporter robust z-score: -0.04; fewer than 50 cells in well: enough cells in well
Pgr (progesterone receptor) | Tnf reporter robust z-score: -0.53; fewer than 50 cells in well: enough cells in well
Ubxn10 (UBX domain protein 10) | Tnf reporter robust z-score: 0.58; fewer than 50 cells in well: enough cells in well
Bscl2 (BSCL2 lipid droplet biogenesis associated, seipin) | Tnf reporter robust z-score: 0.12; fewer than 50 cells in well: enough cells in well
Phtf2 (putative homeodomain transcription factor 2) | Tnf reporter robust z-score: -0.73; fewer than 50 cells in well: enough cells in well

A run of entries taken from the entries so far, as a working copy:
Bscl2 (BSCL2 lipid droplet biogenesis associated, seipin) | Tnf reporter robust z-score: 0.12; fewer than 50 cells in well: enough cells in well
Phtf2 (putative homeodomain transcription factor 2) | Tnf reporter robust z-score: -0.73; fewer than 50 cells in well: enough cells in well

Next entries follow.
Ddx5 (DEAD box helicase 5) | fewer than 50 cells in well: fewer than 50 cells per well; well left out of calls
Ccdc90b (coiled-coil domain containing 90B) | Tnf reporter robust z-score: 3.69 (active); fewer than 50 cells in well: enough cells in well
Iqcj (IQ motif containing J) | Tnf reporter robust z-score: 1.5; fewer than 50 cells in well: enough cells in well
Nrap (nebulin-related anchoring protein) | Tnf reporter robust z-score: 1.13; fewer than 50 cells in well: enough cells in well
Ang2 (angiogenin, ribonuclease A family, member 2) | Tnf reporter robust z-score: 0.58; fewer than 50 cells in well: enough cells in well
